Assay results as given in patent US20250368686A1, “PEPTIDE DRUGS FOR S[…] D[…] BLOCKING HOMO- AND HETERO-DIMERIZATION OF OPIOID RECEPTORS” (OKINAWA INSTITUTE OF SCIENCE AND TECHNOLOGY SCHOOL …, priority 2022, published 2025).
Not every detail of the peptide structures is certain; ends, links or a residue may be inferred. Where no end group is shown, it is not given here.

Chains of the proteins cited; added tags and fusions are not shown.
UniProt P33535, whole entry: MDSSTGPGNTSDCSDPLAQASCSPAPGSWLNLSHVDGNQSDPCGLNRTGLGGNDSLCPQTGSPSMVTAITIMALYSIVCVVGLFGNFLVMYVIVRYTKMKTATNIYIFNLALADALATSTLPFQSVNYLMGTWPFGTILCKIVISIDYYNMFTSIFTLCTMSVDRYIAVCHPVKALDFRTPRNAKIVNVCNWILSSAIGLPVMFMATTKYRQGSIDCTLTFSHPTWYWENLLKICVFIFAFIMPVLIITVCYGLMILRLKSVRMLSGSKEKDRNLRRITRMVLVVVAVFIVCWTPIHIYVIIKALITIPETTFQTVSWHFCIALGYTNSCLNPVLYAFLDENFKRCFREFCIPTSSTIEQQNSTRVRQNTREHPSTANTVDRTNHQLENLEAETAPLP
UniProt P33533, whole entry: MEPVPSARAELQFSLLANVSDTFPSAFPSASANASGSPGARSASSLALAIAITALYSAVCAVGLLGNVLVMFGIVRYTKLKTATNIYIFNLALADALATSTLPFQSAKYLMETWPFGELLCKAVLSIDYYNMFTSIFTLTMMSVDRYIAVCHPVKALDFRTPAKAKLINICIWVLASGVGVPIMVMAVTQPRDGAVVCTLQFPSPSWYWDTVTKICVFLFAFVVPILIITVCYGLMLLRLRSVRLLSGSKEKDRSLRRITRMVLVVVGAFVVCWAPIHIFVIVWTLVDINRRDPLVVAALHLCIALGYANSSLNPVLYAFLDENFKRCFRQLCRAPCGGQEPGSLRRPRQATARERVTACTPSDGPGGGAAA

Experiments:
[1] = target: T1, DOR and MOR (DM) heterodimers (Rattus norvegicus, UniProt P33535); assay: DM heterodimerisation, two-colour single-molecule imaging in CHO-K1 cells (colocalisation index, heterodimer lifetime); type: cell-based
T1 construct: expressed in transfected cells; host or cells: CHO-K1 cells stably co-expressing DOR and MOR

MOR [2] = target: T2, MOR (Rattus norvegicus, UniProt P33535); type: cell-based; design: fluorescent tag protein (not specified for this assay); expressed in transfected cells; host or cells: CHO-K1 (M cells, MD cells); for Ca2+ mobilisation CHO-K1 stably expressing Gqi5; conditions: MD cells
DOR = DOR (Rattus norvegicus, UniProt P33533); type: cell-based; design: fluorescent tag protein (not specified for this assay); expressed in transfected cells; host or cells: CHO-K1 (D cells, MD cells); conditions: MD cells
mice = assay: Tail-flick test, morphine analgesia and tolerance, peptide given continuously to lateral ventricle; type: in vivo, mouse
MOR [3] = target: T2, MOR; type: cell-based; design: fluorescent tag protein (not specified for this assay); expressed in transfected cells; host or cells: CHO-K1 (M cells, MD cells); for Ca2+ mobilisation CHO-K1 stably expressing Gqi5; conditions: peptide in the medium of MD cells
[4] = 10 μM peptide, both DAMGO and morphine (0.5 μM)

SDTFPSAFPSASANASGSPGARS [Dpep(20-42)DM]
DM colocalisation index of DOR and agonist-bound MOR, effect of peptide [1, 4]: significantly reduced
DM heterodimer lifetime of DOR and agonist-bound MOR, effect of peptide [1, 4]: significantly reduced
DM heterodimer lifetime ([1]; in the presence of 10 μM Dpep(20-42)DM, 260 ms in its absence): 124 ms
DM colocalisation index ([1]; soluble peptides, 10 μM final, added to cells stably co-expressing WT-DOR and MOR): largest reductions
τ2 fraction of DM colocalisation durations ([1]; with Dpep(20-42)DM addition, not varied): 41%
DAMGO-induced MOR internalisation (fractions and rates), effect of peptide (MOR [2]; 0.5 μM DAMGO, 10 μM peptide): significantly reduced
SNC-80-induced MOR internalisation (fractions and rates), effect of peptide (MOR [2]; 0.5 μM SNC-80, 10 μM peptide): significantly reduced
DAMGO-induced DOR internalisation (fractions and rates), effect of peptide (DOR; 0.5 μM DAMGO, 10 μM peptide): significantly reduced
SNC-80-induced DOR internalisation (fractions and rates), effect of peptide (DOR; 0.5 μM SNC-80, 10 μM peptide): significantly reduced
analgesic effect of morphine (mice; between 60 and 120 min after morphine, days 1, 5, 8 and 11): facilitated
duration of the enhancing effect on morphine-induced analgesia (mice; day 11, 10 μg/day peptide): at least 120 min
difference of analgesic effect, peptide group vs aCSF group (mice; day 11, 120 min after the morphine application): ~3 fold
development of antinociceptive tolerance to morphine (mice; mice, tail-flick, peptide 10 μg/day to lateral ventricle, morphine 10 mg/kg s.c. daily): reduced
antinociceptive effect of morphine maintained, of the initial effectiveness (mice; peptide-treated mice, for 8-11 days): ~70%
MOR-agonist-induced Ca2+ signal in MD cells, effect of peptide (MOR [3]): moderated the enhancement
